# Data as given in PubChem BioAssay AID1487 (National Center for Advancing Translational Sciences (NCATS), 2009).
# This is one part of the list. Further columns of the screen follow, without active or inactive calls. Most of these compounds were active or inconclusive in the main read-out, so they are no random draw. Words in brackets tell the shape of the fitted curve; partial curves, single points and poor fits give uncertain potencies.
# Experiment: qHTS Assay for Modulators of Lamin A Splicing
# Settings: HeLa LMNA splicing GFP/RFP minigene ratio, 48 h
# Procedure, shortened: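 S3 HeLa cells stably expressing lamin A-EGFP splicing minigene plus DsRed2, 600 cells/well, 48 h compound exposure at 37C. Laser-scanning cytometry; analysed as GFP (500-530 nm)/RFP (575-640 nm) total intensity ratio; 0.5% DMSO vehicle.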
# [1] = measured here: GFP splicing reporter channel
# [2] = measured here: RFP viability control channel
SMILES,AC50 [1],AC50 [2]
O=C(NCc1ccco1)c1ccc2c(c1)N(Cc1ccc(Cl)cc1)C(=O)c1ccccc1S2,"5.01 µM [falling, partial curve, poor fit]",–
O=C(Nc1ccc(F)cc1)Nc1cc(OCC(F)(F)F)cc(OCC(F)(F)F)c1,–,"6.31 µM [rising, full curve]"
CCN(CC)S(=O)(=O)c1ccc(NC(=O)c2c(-c3ccccc3)noc2C)cc1,"12.6 µM [rising, partial curve]","11.2 µM [rising, partial curve]"
O=C(O)c1cccc(N/N=C/C2=C(Cl)c3cc(Cl)ccc3SC2)c1,"0.891 µM [rising, full curve, poor fit]","0.0708 µM [falling, partial curve, poor fit]"
C=CCc1cc(Cl)ccc1OCCOCCNCCOC,"0.282 µM [rising, full curve, poor fit]",–
Fc1ccc(NC(=S)NCCN2CCOCC2)cc1,"25.1 µM [falling, partial curve]","35.5 µM [falling, partial curve]"
COc1cc(CCN2C(=O)N[C@@H](c3cccc(C(F)(F)F)c3)C(C(C)=O)=C2C)cc(OC)c1OC,–,"17.8 µM [rising, single point]"
CNCc1c(OCc2ccc(F)cc2)ccc2ccccc12,"35.5 µM [falling, single point]","7.08 µM [falling, partial curve, poor fit]"
CCOC(=O)Cc1csc(NC(=O)CSc2ncnc3c2cnn3-c2ccccc2Cl)n1,–,"25.1 µM [rising, single point]"
Cc1nc2ccn(Cc3cccnc3)c(=O)c2cc1C(=O)N1CCN(c2ccc(F)cc2)CC1,–,"0.0178 µM [falling, full curve, poor fit]"
O=C(O)c1ccccc1C(=O)NNc1cccc(Cl)n1,"0.501 µM [rising, full curve, poor fit]",–
CCS(=O)(=O)N1CC(=O)N(c2ccc(Cl)cc2)C(C)(C(=O)NC2CCCCCC2)C1 (configuration not stated),"11.2 µM [falling, partial curve]",–
COc1ccc(CCNC(=O)C(C)n2c(=O)cc(C(F)(F)F)c3c(C)nn(C)c32)cc1OC (configuration not stated),"8.91 µM [falling, full curve, poor fit]",–
CCOc1ccccc1/C=N/NC(=O)c1cccc(S(=O)(=O)N2CCOCC2)c1,–,"2.24 µM [falling, partial curve]"
O=C(OC1CCS(=O)(=O)c2sccc21)c1ccccc1 (configuration not stated),"5.62 µM [falling, single point]","5.62 µM [falling, single point]"
Cc1cc(NC(=O)CN2C(=O)c3cccnc3Sc3ccccc32)ccc1Br,"39.8 µM [falling, partial curve, poor fit]","22.4 µM [falling, partial curve]"
COc1ccc(-c2csc(-c3[nH]cnc3N)n2)cc1,"2.51 µM [rising, full curve]",–
Cc1nn(C)c(C)c1CN(C)S(=O)(=O)c1ccc(F)cc1,"14.1 µM [rising, single point]","12.6 µM [rising, partial curve]"

# Individual results from the entries so far:
# Entry of CCN(CC)S(=O)(=O)c1ccc(NC(=O)c2c(-c3ccccc3)noc2C)cc1 under AC50 [2]: 11.2 µM [rising, partial curve]
# Entry of CCOC(=O)Cc1csc(NC(=O)CSc2ncnc3c2cnn3-c2ccccc2Cl)n1 under AC50 [2]: 25.1 µM [rising, single point]

# The list goes on.

SMILES,AC50 [1],AC50 [2]
O=C(NC1CCN(C(=O)N2c3ccccc3Sc3ccccc32)CC1)c1ccco1,"11.2 µM [rising, partial curve]","14.1 µM [rising, partial curve]"
Cc1ccc(CNC(=O)CCC2CCCN(Cc3c(C)nn(C(C)C)c3C)C2)o1 (configuration not stated),–,"0.0178 µM [falling, full curve, poor fit]"
Cc1cc2cc(C#N)c(NCCNC(=S)NCCCN3CCOCC3)nc2cc1C,–,"7.08 µM [rising, partial curve, poor fit]"
Cc1nnc(Sc2nc3c(c(=O)n(C)c(=O)n3C)n2Cc2ccc(Cl)cc2)s1,–,"5.62 µM [falling, partial curve, poor fit]"
Cc1cccn2c(=O)c(C(=O)NC(C)c3ccccc3)cnc12 (configuration not stated),"0.158 µM [rising, full curve, poor fit]",–
CC1CN(c2nc(-c3ccc(Br)cc3)nnc2-c2ccccc2)CC(C)N1 (configuration not stated),"14.1 µM [falling, single point]",–
O=C(c1ccco1)n1nc(-c2cccnc2)nc1NCc1ccco1,"1.41 µM [rising, full curve, poor fit]",–
COc1ccc(Nc2oc(-c3ccc(COc4ccccc4C)o3)nc2C#N)cc1,–,"2.24 µM [rising, single point]"
Cc1ccc(CSc2nc3ccccc3c(=O)n2Cc2ccco2)cc1,"22.4 µM [rising, single point]","17.8 µM [rising, partial curve]"
COc1cc(-c2nnc(SCc3cc(=O)oc4cc(O)c(O)cc34)o2)cc(OC)c1OC,"35.5 µM [falling, single point]",–
CCOc1ccc(/C=C/[N+](=O)[O-])c2ccccc12,"10 µM [falling, partial curve]","15.8 µM [falling, partial curve]"
O=C(NCc1c(Cl)cccc1Oc1ccccc1)c1ccccc1,"0.00447 µM [falling, full curve, poor fit]","0.00447 µM [falling, full curve, poor fit]"
CCCCOC(=O)c1ccc(N)cc1,"25.1 µM [rising, partial curve]","7.08 µM [falling, single point]"
CCOc1ccc2cc(S(=O)(=O)N3CCOCC3)ccc2c1,"12.6 µM [falling, partial curve, poor fit]",–
CN1CCCN([C@@H](c2ccccc2)c2ccc(Cl)cc2)CC1,"0.00158 µM [falling, full curve, poor fit]",–
COC(=O)c1ccc(CN2C(=O)NC3(CCCCC3)C2=O)cc1,"0.0891 µM [rising, full curve, poor fit]",–
CCN(CC)C(C(=O)Nc1ccc(C(C)C)cc1)c1ccc2c(c1)OCO2 (configuration not stated),"31.6 µM [rising, single point]",–
